The list shows a part of the results. Repeats are few or missing, and single values can be far off.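 Cells were imaged in 1,536-well plates, and nuclei stained with an antibody against cleaved PARP were counted against all DNA-stained nuclei to give the apoptosis fraction. Screening doses were chosen to leave most cells alive, and resting and induced cleaved-PARP levels differ strongly between cell lines.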
What was measured:
Assay in all cases: cleaved PARP positive nuclei fraction relative to DMSO control; melanoma cells; higher = more apoptosis
Details in all cases: library dose: low library concentration; 72 h
[1] = test system: 501Mel
[2] = test system: A101D
[3] = test system: A2058
[4] = test system: C32
[5] = test system: CBRC008 (line from a melanoma biopsy)
[6] = test system: CBRC014 (line from a melanoma biopsy)
[7] = test system: CBRC016 (line from a melanoma biopsy)
[8] = test system: CBRC017 (line from a melanoma biopsy)

| SMILES | cleaved PARP positive nuclei fraction [1] [%] | cleaved PARP positive nuclei fraction [2] [%] | cleaved PARP positive nuclei fraction [3] [%] | cleaved PARP positive nuclei fraction [4] [%] | cleaved PARP positive nuclei fraction [5] [%] | cleaved PARP positive nuclei fraction [6] [%] | cleaved PARP positive nuclei fraction [7] [%] | cleaved PARP positive nuclei fraction [8] [%] |
| --- | --- | --- | --- | --- | --- | --- | --- | --- |
| CS(=O)(=O)c1ccc(C(=O)Nc2ccc(Cl)c(-c3ccccn3)c2)c(Cl)c1 [vismodegib] + C/C(O)=C(\C#N)C(=O)Nc1cc(Br)ccc1Br [LFM-A13] (first compound 1 µM, partner dose 2 µM) | 154 | 18.8 | 25.3 | 104 | 159 | 48.4 | 45.2 | 88.5 |
| Cc1cn(-c2cc(NC(=O)c3ccc(C)c(Nc4nccc(-c5cccnc5)n4)c3)cc(C(F)(F)F)c2)cn1 [nilotinib] + Cc1cc(SCc2sc(-c3ccc(C(F)(F)F)c(F)c3)nc2C)ccc1OCC(=O)O [GW0742] (first compound 0.2 µM, partner dose 2 µM) | 74.7 | 31.9 | 138 | 45.9 | 203 | 97.9 | 58.6 | 77.5 |
| C[C@]12O[C@H](C[C@]1(O)CO)n1c3ccccc3c3c4c(c5c6ccccc6n2c5c31)CNC4=O [Lestaurtinib] + O=S(=O)(c1ccccc1)N(CC(F)(F)F)c1ccc(C(O)(C(F)(F)F)C(F)(F)F)cc1 [T0901317] (first compound 0.004 µM, partner dose 1.4 µM) | 176 | 45.2 | 90.5 | 82.9 | 153 | 181 | 104 | 81.8 |
| O=C(O)[C@@H]1[O][Sb](=[O])([O][Sb]2(=[O])[O][C@H]([C@H](O)CO)[C@H](O)[C@H](C(=O)O)[O]2)[O][C@H]([C@H](O)CO)[C@@H]1O (some centres undefined) [stibogluconate] + Cc1cc(SCc2sc(-c3ccc(C(F)(F)F)c(F)c3)nc2C)ccc1OCC(=O)O [GW0742] (first compound 2 µM, partner dose 2 µM) | 83.7 | 20.5 | 44.7 | 79.3 | 156 | 87.6 | 92.7 | 69.5 |
| N.N.[Cl][Pt][Cl] [cisplatin] + Cc1cc(SCc2sc(-c3ccc(C(F)(F)F)c(F)c3)nc2C)ccc1OCC(=O)O [GW0742] (first compound 1.6 µM, partner dose 2 µM) | 39.8 | 18.2 | 85.6 | 148 | 176 | 91.7 | 115 | 93.4 |
| N.N.[Cl][Pt][Cl] [cisplatin] + c1cc(-c2cnn3cc(-c4ccc(OCCN5CCCCC5)cc4)cnc23)ccn1 [Dorsomorphin] (first compound 1.6 µM, partner dose 0.4 µM) | 42.9 | 22.4 | 77.2 | 161 | 38.3 | 112 | 79.2 | 115 |
| Cc1cc(Nc2cc(N3CCN(C)CC3)nc(/C=C/c3ccccc3)n2)n[nH]1 + O=C(Oc1ccc([N+](=O)[O-])cc1)N1CCC(C(O)(c2ccc3c(c2)OCO3)c2ccc3c(c2)OCO3)CC1 [JZL184] (first compound 0.04 µM, partner dose 1 µM) | 67.3 | 13.8 | 111 | 282 | 143 | 662 | 60.1 | 78.2 |
| C[C@]1(O)C[C@@H](c2nc(-c3ccc4ccc(-c5ccccc5)nc4c3)c3c(N)nccn32)C1 + O=C(Oc1ccc([N+](=O)[O-])cc1)N1CCC(C(O)(c2ccc3c(c2)OCO3)c2ccc3c(c2)OCO3)CC1 [JZL184] (first compound 0.4 µM, partner dose 1 µM) | 276 | 22.5 | 137 | 77.9 | 113 | 103 | 82.9 | 95.6 |
| Cn1sc(=O)n(Cc2ccccc2)c1=O + C/C(O)=C(\C#N)C(=O)Nc1cc(Br)ccc1Br [LFM-A13] (first compound 0.4 µM, partner dose 2 µM) | 60.8 | 29 | 35.1 | 28.4 | 45.9 | 118 | 98.1 | 95.5 |
| C[C@]12O[C@H](C[C@]1(O)CO)n1c3ccccc3c3c4c(c5c6ccccc6n2c5c31)CNC4=O [Lestaurtinib] + CC(C)CCN1c2nc(Nc3cc(F)c(O)c(F)c3)ncc2N(C)C(=O)C1C [BID1870] (first compound 0.004 µM, partner dose 0.2 µM) | 77.9 | 34.2 | 117 | 123 | 156 | 90.9 | 64.6 | 67.9 |
| NC1(c2ccc(-c3nc4ccn5c(=O)[nH]nc5c4cc3-c3ccccc3)cc2)CCC1 + C/C(O)=C(\C#N)C(=O)Nc1cc(Br)ccc1Br [LFM-A13] (first compound 0.4 µM, partner dose 2 µM) | 34.5 | 28.6 | 333 | 88.5 | 41.3 | 71 | 69.4 | 68.2 |
| N.N.[Cl][Pt][Cl] [cisplatin] + COc1ccc(-c2ccc3c(N4CCOCC4)nc(N4C[C@@H](C)O[C@@H](C)C4)nc3n2)cc1CO [KU0063794] (first compound 1.6 µM, partner dose 0.02 µM) | 57.9 | 30.9 | 104 | 74.1 | 347 | 96.2 | 164 | 364 |
| Cn1sc(=O)n(Cc2ccccc2)c1=O + O=C(Oc1ccc([N+](=O)[O-])cc1)N1CCC(C(O)(c2ccc3c(c2)OCO3)c2ccc3c(c2)OCO3)CC1 [JZL184] (first compound 0.4 µM, partner dose 1 µM) | 78 | 38.5 | 13.5 | 23.4 | 80.7 | 88.6 | 74.8 | 88.6 |
| NC(=O)c1ccc(N(C(N)=O)c2c(F)cccc2F)nc1-c1ccc(F)cc1F + C/C(O)=C(\C#N)C(=O)Nc1cc(Br)ccc1Br [LFM-A13] (first compound 0.4 µM, partner dose 2 µM) | 67.4 | 14.7 | 63.6 | 90.6 | 113 | 119 | 60.5 | 100 |
| C[C@]12O[C@H](C[C@]1(O)CO)n1c3ccccc3c3c4c(c5c6ccccc6n2c5c31)CNC4=O [Lestaurtinib] + Oc1cc(-c2nc(-c3ccccc3)[nH]c2-c2ccncc2)ccc1Cl [L779450] (first compound 0.004 µM, partner dose 0.2 µM) | 127 | 25.3 | 107 | 48 | 123 | 94.7 | 96.6 | 76 |
| CCCS(=O)(=O)Nc1ccc(F)c(C(=O)c2c[nH]c3ncc(Cl)cc23)c1F + Cc1cc(SCc2sc(-c3ccc(C(F)(F)F)c(F)c3)nc2C)ccc1OCC(=O)O [GW0742] (first compound 0.08 µM, partner dose 2 µM) | 75 | 30.4 | 46.2 | 55.5 | 362 | 113 | 69.9 | 119 |
| C[C@]12O[C@H](C[C@]1(O)CO)n1c3ccccc3c3c4c(c5c6ccccc6n2c5c31)CNC4=O [Lestaurtinib] + O=c1cc(-c2cccc3c2Sc2ccccc2S3)oc(N2CCOCC2)c1 [KU55933] (first compound 0.004 µM, partner dose 1 µM) | 79 | 19.5 | 69.3 | 303 | 58.9 | 97.7 | 34.5 | 87.5 |
| C=C(c1ccc(C(=O)O)cc1)c1cc2c(cc1C)C(C)(C)CCC2(C)C [Bexarotene] + C/C(O)=C(\C#N)C(=O)Nc1cc(Br)ccc1Br [LFM-A13] (first compound 2 µM, partner dose 2 µM) | 65.7 | 24.7 | 75.6 | 82.5 | 524 | 131 | 120 | 289 |
| C=CCNC1=C2C[C@@H](C)C[C@H](OC)[C@H](O)[C@@H](C)/C=C(\C)[C@H](OC(N)=O)[C@@H](OC)/C=C\C=C(/C)C(=O)NC(=CC1=O)C2=O [Tanespimycin] + Cc1cc(SCc2sc(-c3ccc(C(F)(F)F)c(F)c3)nc2C)ccc1OCC(=O)O [GW0742] (first compound 0.002 µM, partner dose 2 µM) | 83.1 | 35.8 | 58.1 | 40.8 | 30.5 | 92.5 | 95.1 | 426 |
| CS(=O)(=O)CCNCc1ccc(-c2ccc3ncnc(Nc4ccc(OCc5cccc(F)c5)c(Cl)c4)c3c2)o1 [lapatinib] + C/C(O)=C(\C#N)C(=O)Nc1cc(Br)ccc1Br [LFM-A13] (first compound 0.8 µM, partner dose 2 µM) | 124 | 46.1 | 128 | 80.5 | 211 | 120 | 64.4 | 123 |
| Cn1cc(C2=C(c3cn(C4CCN(Cc5ccccn5)CC4)c4ccccc34)C(=O)NC2=O)c2ccccc21 [Enzastaurin] + Cc1cc(SCc2sc(-c3ccc(C(F)(F)F)c(F)c3)nc2C)ccc1OCC(=O)O [GW0742] (first compound 0.8 µM, partner dose 2 µM) | 76.9 | 37.6 | 35.6 | 78.2 | 317 | 109 | 50.6 | 172 |
| O=C(Nc1cc(C(F)(F)F)cc(C(F)(F)F)c1)c1cc(Cl)ccc1O + O=C(Oc1ccc([N+](=O)[O-])cc1)N1CCC(C(O)(c2ccc3c(c2)OCO3)c2ccc3c(c2)OCO3)CC1 [JZL184] (first compound 0.016 µM, partner dose 1 µM) | 71.4 | 24.6 | 154 | 80.3 | 77.8 | 86.7 | 18.2 | 92.7 |
| CC[C@]1(O)C[C@H]2CN(CCc3c([nH]c4ccccc34)[C@@](C(=O)OC)(c3cc4c(cc3OC)N(C=O)[C@H]3[C@@](O)(C(=O)OC)[C@H](OC(C)=O)[C@]5(CC)C=CCN6CC[C@]43[C@@H]65)C2)C1 [vincristine] + C/C(O)=C(\C#N)C(=O)Nc1cc(Br)ccc1Br [LFM-A13] (first compound 0.0001 µM, partner dose 2 µM) | 76.8 | 54.8 | 577 | 203 | 416 | 104 | 114 | 114 |

An excerpt of these results, as comma-separated lines.
SMILES,cleaved PARP positive nuclei fraction [1] [%],cleaved PARP positive nuclei fraction [2] [%],cleaved PARP positive nuclei fraction [3] [%],cleaved PARP positive nuclei fraction [4] [%],cleaved PARP positive nuclei fraction [5] [%],cleaved PARP positive nuclei fraction [6] [%],cleaved PARP positive nuclei fraction [7] [%],cleaved PARP positive nuclei fraction [8] [%]
"Cc1cn(-c2cc(NC(=O)c3ccc(C)c(Nc4nccc(-c5cccnc5)n4)c3)cc(C(F)(F)F)c2)cn1 [nilotinib] + Cc1cc(SCc2sc(-c3ccc(C(F)(F)F)c(F)c3)nc2C)ccc1OCC(=O)O [GW0742] (first compound 0.2 µM, partner dose 2 µM)",74.7,31.9,138,45.9,203,97.9,58.6,77.5
"C[C@]12O[C@H](C[C@]1(O)CO)n1c3ccccc3c3c4c(c5c6ccccc6n2c5c31)CNC4=O [Lestaurtinib] + O=S(=O)(c1ccccc1)N(CC(F)(F)F)c1ccc(C(O)(C(F)(F)F)C(F)(F)F)cc1 [T0901317] (first compound 0.004 µM, partner dose 1.4 µM)",176,45.2,90.5,82.9,153,181,104,81.8

Source: the supplement of paper PMC4604168 (melanoma cell lines)
